Measured values taken from patent US9364471B2, “Compositions and methods of treating retinal disease” (ALDEYRA THERAPEUTICS, INC., priority 2005, dated 2016).
At least one compound was matched to its structure with a doubt left.

Tests used:
[1] = In vitro Schiff base confirmation: UV/VIS spectroscopy of condensation with RAL; conditions: solution phase 100:1 compound:RAL; for RAL-SBC λmin: Schiff base condensation product of RAL and compound; for RAL-SBC tau: Schiff base condensation with RAL
[2] = NMR analysis of RAL reactions (Schiff base condensation and ring formation); format: physicochemical; conditions: Schiff base condensation with RAL, pure chloroform

Row | SMILES | RAL-SBC λmin [1] [nm] | RAL-SBC tau [1] | tau (minutes) condense [2] [min]
1 | COC(=O)c1nc(N)sc1Cl [Compound 2] | 340 | 3,000 sec | –
2 | CCOC(=O)c1csc(N)n1 [Compound 1] | – | 10,000 sec | –
3 | CCOC(=O)Cc1csc(N)n1 [Compound 4] | – | 10,000 sec | –
4 | Nc1nccs1 [Compound 3] | 330 | 10,000 sec | –
5 | CCOC(=O)c1cccc(N)c1 [Compound 6, tricaine methane sulfonate, reference compound] | – | 50 s | 3
